Measured values: article PMC8546589
Read-outs that look alike come from different tables or passages of the source. No constants are given. Whether binding was seen depends on the method and setting. In cells and extracts the contact can be indirect. These calls come from enrichment with a bait or labelling near it, and not all partners need be listed. For part of these data: A no says only that the protein was not detected with the bait. Sequences can lack the tags named with a protein.

Legend:
[1] = biological target: T1, Myc-EhAgo2-2 (E. histolytica) (UniProt C4LVV2); assay: affinity purification with mass spectrometry; anti-c-Myc agarose IP from whole-cell lysate of E. histolytica lines overexpressing the Myc-tagged bait (EhAgo2-2 WT, its two mutants, EhRdRP1, EhRdRP2), 2 h at 4°C, six low-stringency washes; LC-MS/MS in triplicate; nonribosomal hits in at least 2 of 3 data sets, exclusive or ≥3-fold enriched against the Luc control
T1 sequence: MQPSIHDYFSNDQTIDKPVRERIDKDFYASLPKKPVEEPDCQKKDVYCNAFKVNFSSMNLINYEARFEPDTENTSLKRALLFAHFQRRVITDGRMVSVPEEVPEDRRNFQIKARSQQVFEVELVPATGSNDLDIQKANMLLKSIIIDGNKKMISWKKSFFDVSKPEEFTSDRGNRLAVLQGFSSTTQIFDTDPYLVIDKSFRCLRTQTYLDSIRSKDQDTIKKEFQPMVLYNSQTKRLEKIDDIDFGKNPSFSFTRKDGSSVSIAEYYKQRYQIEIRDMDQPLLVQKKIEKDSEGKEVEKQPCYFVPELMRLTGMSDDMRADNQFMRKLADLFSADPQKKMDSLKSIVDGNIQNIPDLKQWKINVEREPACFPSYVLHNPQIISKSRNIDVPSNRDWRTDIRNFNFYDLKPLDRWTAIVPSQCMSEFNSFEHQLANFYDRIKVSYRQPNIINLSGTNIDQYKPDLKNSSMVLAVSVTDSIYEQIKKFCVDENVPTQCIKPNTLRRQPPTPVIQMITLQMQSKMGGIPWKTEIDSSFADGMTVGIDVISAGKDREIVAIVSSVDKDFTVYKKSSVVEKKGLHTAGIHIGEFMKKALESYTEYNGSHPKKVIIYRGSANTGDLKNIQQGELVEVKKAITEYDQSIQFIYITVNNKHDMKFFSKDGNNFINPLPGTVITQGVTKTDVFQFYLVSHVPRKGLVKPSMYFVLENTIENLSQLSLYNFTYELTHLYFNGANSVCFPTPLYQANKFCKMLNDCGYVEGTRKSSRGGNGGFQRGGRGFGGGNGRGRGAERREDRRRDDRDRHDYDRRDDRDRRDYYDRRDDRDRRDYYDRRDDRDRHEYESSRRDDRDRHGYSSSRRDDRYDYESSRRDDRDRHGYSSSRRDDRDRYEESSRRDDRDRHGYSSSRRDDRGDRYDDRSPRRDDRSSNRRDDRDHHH

[2] = biological target: T2, Myc-NAP07 (E. histolytica) (UniProt C4M608); assay: affinity purification with mass spectrometry; anti-c-Myc agarose IP from whole-cell lysate of E. histolytica lines overexpressing Myc-NAP07, Myc-NAP12, Myc-EBP-1, Myc-GNB2L1 or Myc-Tudor-like protein; LC-MS/MS in duplicate; hits in both replicates and exclusive against the Luc control
T2 sequence: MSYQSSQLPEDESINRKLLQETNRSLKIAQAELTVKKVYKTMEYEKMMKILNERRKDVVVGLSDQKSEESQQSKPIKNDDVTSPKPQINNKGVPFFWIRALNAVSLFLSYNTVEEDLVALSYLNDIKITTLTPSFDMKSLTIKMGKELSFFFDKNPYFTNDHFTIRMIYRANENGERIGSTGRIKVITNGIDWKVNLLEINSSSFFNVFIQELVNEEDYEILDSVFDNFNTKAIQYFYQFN

[3] = biological target: T1, Myc-EhAgo2-2 (E. histolytica); assay: affinity purification with mass spectrometry; anti-c-Myc agarose IP from whole-cell lysate of E. histolytica lines overexpressing the Myc-tagged bait (EhAgo2-2 WT, its two mutants, EhRdRP1, EhRdRP2), 2 h at 4°C, six low-stringency washes; LC-MS/MS in triplicate; nonribosomal hits in at least 2 of 3 data sets, exclusive or ≥3-fold enriched against the Luc control; remark: listed apart in the source
[4] = biological target: T3, Myc-NAP12 (E. histolytica) (UniProt C4M8H9); assay: affinity purification with mass spectrometry; anti-c-Myc agarose IP from whole-cell lysate of E. histolytica lines overexpressing Myc-NAP07, Myc-NAP12, Myc-EBP-1, Myc-GNB2L1 or Myc-Tudor-like protein; LC-MS/MS in duplicate; hits in both replicates and exclusive against the Luc control
T3 sequence: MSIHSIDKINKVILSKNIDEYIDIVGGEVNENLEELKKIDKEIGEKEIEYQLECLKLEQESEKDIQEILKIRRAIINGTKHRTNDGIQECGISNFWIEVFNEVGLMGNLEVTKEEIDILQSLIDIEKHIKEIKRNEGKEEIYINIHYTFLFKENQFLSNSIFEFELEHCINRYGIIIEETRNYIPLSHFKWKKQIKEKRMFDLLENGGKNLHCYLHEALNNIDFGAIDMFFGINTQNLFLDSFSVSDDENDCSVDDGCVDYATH

MIR domain
binding [1]: binds

elongation factor 1-alpha 1
binding [1]: binds

chaperonin 1
binding [1]: binds

Hsp90
binding [1]: no binding

Hsp70
binding [1]: binds

B1: NAP12 (endogenous) (protein, UniProt C4M8H9 1-264)
chain: MSIHSIDKINKVILSKNIDEYIDIVGGEVNENLEELKKIDKEIGEKEIEYQLECLKLEQESEKDIQEILKIRRAIINGTKHRTNDGIQECGISNFWIEVFNEVGLMGNLEVTKEEIDILQSLIDIEKHIKEIKRNEGKEEIYINIHYTFLFKENQFLSNSIFEFELEHCINRYGIIIEETRNYIPLSHFKWKKQIKEKRMFDLLENGGKNLHCYLHEALNNIDFGAIDMFFGINTQNLFLDSFSVSDDENDCSVDDGCVDYATH
binding [2]: binds
binding [3]: binds

B2: RNase III domain protein (EHI_068740) (enzyme, UniProt C4LU64 1-256)
chain: MSSTTLHNAMQYTAFDVLSSILNLMKADPLYDLLQLNQAYSSQDQEYEKNEFYGDSYLEERASSLVLKFLRKYEQIPFEMYSGLRIHTVKNQTLGEIFDLLHLGDTKTFEKKKKGDLVESLIGGCVLLSQRENATLFLLFAHALIDYIFYHSSYIYFNANPPKLVKEEIITDIQNWFKDKLFYYRSSLEKYQTDPTNFYLEEQHVSVDLFDDKEEVDTNDIDYILSSSDPLDFGIPEPSFNMTTSPSWNSFVHPSQ
binding [3]: no binding

B3: URE3-BP (upstream regulatory element 3-binding protein) (protein, UniProt C4MBE2 1-227)
chain: MQFGYPPMQPPVANFCLWNLQPIQGSWMGAACIYQMPPSVRNTWWFPLLNTIPLDQYTRIYQWFMGVDRDRSGTLEINELMMGQFPGGIRLSPQTALRMMRIFDTDFNGHISFYEFMAMYKFMELAYNLFVMNDRNRSGTLEPHEILPALQQLGFYINQRTSLLLHRLFARGMAFCDLNCWIAICAFAAQTRSAYQMIFMNPYYGPMKPFNPMEFGKFLDVVTSLLE
binding [3]: binds

B4: EhAgo2-2 (endogenous) (protein, UniProt C4LVV2 1-937)
chain: MQPSIHDYFSNDQTIDKPVRERIDKDFYASLPKKPVEEPDCQKKDVYCNAFKVNFSSMNLINYEARFEPDTENTSLKRALLFAHFQRRVITDGRMVSVPEEVPEDRRNFQIKARSQQVFEVELVPATGSNDLDIQKANMLLKSIIIDGNKKMISWKKSFFDVSKPEEFTSDRGNRLAVLQGFSSTTQIFDTDPYLVIDKSFRCLRTQTYLDSIRSKDQDTIKKEFQPMVLYNSQTKRLEKIDDIDFGKNPSFSFTRKDGSSVSIAEYYKQRYQIEIRDMDQPLLVQKKIEKDSEGKEVEKQPCYFVPELMRLTGMSDDMRADNQFMRKLADLFSADPQKKMDSLKSIVDGNIQNIPDLKQWKINVEREPACFPSYVLHNPQIISKSRNIDVPSNRDWRTDIRNFNFYDLKPLDRWTAIVPSQCMSEFNSFEHQLANFYDRIKVSYRQPNIINLSGTNIDQYKPDLKNSSMVLAVSVTDSIYEQIKKFCVDENVPTQCIKPNTLRRQPPTPVIQMITLQMQSKMGGIPWKTEIDSSFADGMTVGIDVISAGKDREIVAIVSSVDKDFTVYKKSSVVEKKGLHTAGIHIGEFMKKALESYTEYNGSHPKKVIIYRGSANTGDLKNIQQGELVEVKKAITEYDQSIQFIYITVNNKHDMKFFSKDGNNFINPLPGTVITQGVTKTDVFQFYLVSHVPRKGLVKPSMYFVLENTIENLSQLSLYNFTYELTHLYFNGANSVCFPTPLYQANKFCKMLNDCGYVEGTRKSSRGGNGGFQRGGRGFGGGNGRGRGAERREDRRRDDRDRHDYDRRDDRDRRDYYDRRDDRDRRDYYDRRDDRDRHEYESSRRDDRDRHGYSSSRRDDRYDYESSRRDDRDRHGYSSSRRDDRDRYEESSRRDDRDRHGYSSSRRDDRGDRYDDRSPRRDDRSSNRRDDRDHHH
binding [4]: binds

B5: DNA repair protein (EHI_114930) (protein, UniProt C4M7S7 1-764)
chain: MKRSCAPSQKKLLSQKPLHQPKQQEENQKKNPKVLLKVITQEKKKIDIIKVFKIMWAKNSPKKQKTFNDGFIVVNSNNIGLIHDEEDKVIGKVNNIMKEISPETIGGDSIILAGKVIEIEEEVPVEQYLSGKLFLHETAITITQPKFELKKTALGNGPIKKKKVSLYNKENPFAYCIDDKKEPAILIDPYIGKFLRPHQIEGVKFMYHCIMRGGECGCILADEMGLGKTLQTITLIWTVYKQCNIKKIVIVCPQSLIGNWEKEFKKWLGVERISVQTGSSDSSMKEKVNDFIRDYIPVLIISYEQVRSHVETLKKTKIGLIVCDEGHRIKNLMSKTNSSLKALGGSRHIILSGTPVQNGLEDFYSLIEFCSPGCLGTLSSFKRVFAIPIQKAQDGNASIEEIQLGTERAKELTNKLNDYVLRRTSQVNEKYLPDKTEIVLFIKPSYLQIKLYKIMLKELEKKKLDQCSALKYIQLFTKLCNHPSLISKYLTEEKISLNENDEKCIKGISLNEESSNKFNITIQFIKEILIKSKEKVVLVSNYTKTLDLFEIYFKQEEEYKQKKIFNYLRLDGKTSQKQRDIIVEKINDKSSNYNILLLSSKAGGVGLNLIGCSRLILFDPDWNPAKDKQAMARIWRDGQQKKAMIYRMLCTGTIEEKIYQRQLQKNQISESIIEEHLEMGKSLSVEQLMKIFELNTNTICDTHDLLQCDCCNGGYKTEEDTLHLIPKMKEEIKSIDPLISTIEGINKMVSMLFVNEFHNKQKMK
binding [3]: binds

B6: NAP07 (endogenous) (protein, UniProt C4M608 1-241)
chain: MSYQSSQLPEDESINRKLLQETNRSLKIAQAELTVKKVYKTMEYEKMMKILNERRKDVVVGLSDQKSEESQQSKPIKNDDVTSPKPQINNKGVPFFWIRALNAVSLFLSYNTVEEDLVALSYLNDIKITTLTPSFDMKSLTIKMGKELSFFFDKNPYFTNDHFTIRMIYRANENGERIGSTGRIKVITNGIDWKVNLLEINSSSFFNVFIQELVNEEDYEILDSVFDNFNTKAIQYFYQFN
binding [4]: binds
